Data from patent US20210069248A1.
No constants are given. Whether binding was seen depends on the method and setting. Some entries that bind do so weakly or less than the wild type.

The chains behind the UniProt entries cited, without tags or fusion partners. Where a name states a change or a piece, a line headed by the entry shows the natural chain unless it says otherwise.
UniProt Q13261: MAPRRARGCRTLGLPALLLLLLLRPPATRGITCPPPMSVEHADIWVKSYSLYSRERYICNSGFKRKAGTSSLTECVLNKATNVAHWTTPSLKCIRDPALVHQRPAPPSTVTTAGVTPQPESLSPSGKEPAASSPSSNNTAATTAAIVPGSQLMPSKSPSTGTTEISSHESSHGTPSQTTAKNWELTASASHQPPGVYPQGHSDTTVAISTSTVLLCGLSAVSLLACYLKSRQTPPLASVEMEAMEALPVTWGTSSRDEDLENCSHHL

How the values were obtained:
[1] = target: IL15-292 (constitutive membrane-bound IL15, mbIL15) (human); assay: flow cytometry of transduced cord blood NK cells stained with IL15Ra-Fc and anti-CD56 antibody
[2] = target: IL15-292 (constitutive membrane-bound IL15, mbIL15) (human); assay: flow cytometry of transduced TIL, co-staining with anti-IL15 antibody and IL15Ra-Fc (IL15+IL15Ra-Fc+ double positive population)
[3] = target: IL15-293 (ACZ-regulated membrane-bound IL15 linked to CA2 (M1del, L156H) DRD) (human); assay: flow cytometry of transduced TIL after 10 µM ACZ for 24 hrs, co-staining with anti-IL15 antibody and IL15Ra-Fc (17.1% with low MFI in DMSO)
[4] = target: IL15-293 (ACZ-regulated membrane-bound IL15 linked to CA2 (M1del, L156H) DRD) (human); assay: flow cytometry of transduced cord blood NK cells after 10 µM ACZ overnight, stained with IL15Ra-Fc and anti-CD56 antibody (10% or less in DMSO)
[5] = target: IL15-292 (constitutive membrane-bound IL15, mbIL15) (human); assay: flow cytometry of transduced human T cells from NSG mouse blood on day 25, stained with IL15Ra-Fc and fluorochrome conjugated anti-human IgG antibody
[6] = target: IL15-294 (constitutive membrane-bound IL15, variant intracellular tail) (human); assay: as above
[7] = target: IL15-293 (ACZ-regulated membrane-bound IL15 linked to CA2 (M1del, L156H) DRD) (human); assay: flow cytometry of transduced human T cells from blood of ACZ-treated NSG mice on day 25, stained with IL15Ra-Fc and fluorochrome conjugated anti-human IgG antibody
[8] = target: IL15-295 (ACZ-regulated membrane-bound IL15, variant intracellular tail, linked to CA2 (M1del, L156H) DRD) (human); assay: as above

Measured: binding

recombinant protein comprised of extracellular domain of IL15Ra fused to human IgG1 Fc domain (IL15Ra-Fc) (from UniProt Q13261 31-205) (Fc fusion)
binds: all assays above
